Reference: PMC5740495
These are yes or no findings as the source states them, for the method shown. Binding seen in cells or lysates may run through a third protein. A yes stands for co-enrichment or nearness to the bait. Other partners may have been found.

Amino acid sequences for entries named in this document (tags omitted).
UniProt P52294: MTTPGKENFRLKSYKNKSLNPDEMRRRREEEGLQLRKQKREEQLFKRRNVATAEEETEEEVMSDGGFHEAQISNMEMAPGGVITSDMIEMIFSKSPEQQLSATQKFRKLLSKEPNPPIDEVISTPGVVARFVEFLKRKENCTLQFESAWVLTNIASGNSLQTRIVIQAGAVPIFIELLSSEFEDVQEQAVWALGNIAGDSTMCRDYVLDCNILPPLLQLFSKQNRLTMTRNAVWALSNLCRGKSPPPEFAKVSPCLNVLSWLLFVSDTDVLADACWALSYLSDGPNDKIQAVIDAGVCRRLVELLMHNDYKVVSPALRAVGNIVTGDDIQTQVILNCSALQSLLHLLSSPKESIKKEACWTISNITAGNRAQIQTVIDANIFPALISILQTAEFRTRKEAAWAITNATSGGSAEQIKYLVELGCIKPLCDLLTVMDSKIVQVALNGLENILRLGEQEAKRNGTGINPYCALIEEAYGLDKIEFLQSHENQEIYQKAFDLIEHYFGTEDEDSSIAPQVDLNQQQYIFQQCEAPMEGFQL
UniProt O15131: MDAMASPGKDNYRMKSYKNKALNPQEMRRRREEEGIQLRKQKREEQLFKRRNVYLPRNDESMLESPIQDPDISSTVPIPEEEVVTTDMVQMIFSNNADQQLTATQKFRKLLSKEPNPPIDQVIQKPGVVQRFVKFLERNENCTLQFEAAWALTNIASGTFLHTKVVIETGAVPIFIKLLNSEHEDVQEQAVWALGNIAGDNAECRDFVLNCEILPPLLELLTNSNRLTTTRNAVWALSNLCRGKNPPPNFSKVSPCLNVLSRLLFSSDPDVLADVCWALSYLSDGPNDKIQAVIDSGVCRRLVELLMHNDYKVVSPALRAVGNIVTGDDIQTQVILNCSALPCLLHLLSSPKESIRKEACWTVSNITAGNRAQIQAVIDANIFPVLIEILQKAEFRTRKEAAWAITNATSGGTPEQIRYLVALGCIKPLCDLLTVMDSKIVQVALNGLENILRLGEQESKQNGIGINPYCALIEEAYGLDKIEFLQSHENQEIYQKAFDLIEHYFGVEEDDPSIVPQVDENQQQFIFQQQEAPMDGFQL
UniProt P49792: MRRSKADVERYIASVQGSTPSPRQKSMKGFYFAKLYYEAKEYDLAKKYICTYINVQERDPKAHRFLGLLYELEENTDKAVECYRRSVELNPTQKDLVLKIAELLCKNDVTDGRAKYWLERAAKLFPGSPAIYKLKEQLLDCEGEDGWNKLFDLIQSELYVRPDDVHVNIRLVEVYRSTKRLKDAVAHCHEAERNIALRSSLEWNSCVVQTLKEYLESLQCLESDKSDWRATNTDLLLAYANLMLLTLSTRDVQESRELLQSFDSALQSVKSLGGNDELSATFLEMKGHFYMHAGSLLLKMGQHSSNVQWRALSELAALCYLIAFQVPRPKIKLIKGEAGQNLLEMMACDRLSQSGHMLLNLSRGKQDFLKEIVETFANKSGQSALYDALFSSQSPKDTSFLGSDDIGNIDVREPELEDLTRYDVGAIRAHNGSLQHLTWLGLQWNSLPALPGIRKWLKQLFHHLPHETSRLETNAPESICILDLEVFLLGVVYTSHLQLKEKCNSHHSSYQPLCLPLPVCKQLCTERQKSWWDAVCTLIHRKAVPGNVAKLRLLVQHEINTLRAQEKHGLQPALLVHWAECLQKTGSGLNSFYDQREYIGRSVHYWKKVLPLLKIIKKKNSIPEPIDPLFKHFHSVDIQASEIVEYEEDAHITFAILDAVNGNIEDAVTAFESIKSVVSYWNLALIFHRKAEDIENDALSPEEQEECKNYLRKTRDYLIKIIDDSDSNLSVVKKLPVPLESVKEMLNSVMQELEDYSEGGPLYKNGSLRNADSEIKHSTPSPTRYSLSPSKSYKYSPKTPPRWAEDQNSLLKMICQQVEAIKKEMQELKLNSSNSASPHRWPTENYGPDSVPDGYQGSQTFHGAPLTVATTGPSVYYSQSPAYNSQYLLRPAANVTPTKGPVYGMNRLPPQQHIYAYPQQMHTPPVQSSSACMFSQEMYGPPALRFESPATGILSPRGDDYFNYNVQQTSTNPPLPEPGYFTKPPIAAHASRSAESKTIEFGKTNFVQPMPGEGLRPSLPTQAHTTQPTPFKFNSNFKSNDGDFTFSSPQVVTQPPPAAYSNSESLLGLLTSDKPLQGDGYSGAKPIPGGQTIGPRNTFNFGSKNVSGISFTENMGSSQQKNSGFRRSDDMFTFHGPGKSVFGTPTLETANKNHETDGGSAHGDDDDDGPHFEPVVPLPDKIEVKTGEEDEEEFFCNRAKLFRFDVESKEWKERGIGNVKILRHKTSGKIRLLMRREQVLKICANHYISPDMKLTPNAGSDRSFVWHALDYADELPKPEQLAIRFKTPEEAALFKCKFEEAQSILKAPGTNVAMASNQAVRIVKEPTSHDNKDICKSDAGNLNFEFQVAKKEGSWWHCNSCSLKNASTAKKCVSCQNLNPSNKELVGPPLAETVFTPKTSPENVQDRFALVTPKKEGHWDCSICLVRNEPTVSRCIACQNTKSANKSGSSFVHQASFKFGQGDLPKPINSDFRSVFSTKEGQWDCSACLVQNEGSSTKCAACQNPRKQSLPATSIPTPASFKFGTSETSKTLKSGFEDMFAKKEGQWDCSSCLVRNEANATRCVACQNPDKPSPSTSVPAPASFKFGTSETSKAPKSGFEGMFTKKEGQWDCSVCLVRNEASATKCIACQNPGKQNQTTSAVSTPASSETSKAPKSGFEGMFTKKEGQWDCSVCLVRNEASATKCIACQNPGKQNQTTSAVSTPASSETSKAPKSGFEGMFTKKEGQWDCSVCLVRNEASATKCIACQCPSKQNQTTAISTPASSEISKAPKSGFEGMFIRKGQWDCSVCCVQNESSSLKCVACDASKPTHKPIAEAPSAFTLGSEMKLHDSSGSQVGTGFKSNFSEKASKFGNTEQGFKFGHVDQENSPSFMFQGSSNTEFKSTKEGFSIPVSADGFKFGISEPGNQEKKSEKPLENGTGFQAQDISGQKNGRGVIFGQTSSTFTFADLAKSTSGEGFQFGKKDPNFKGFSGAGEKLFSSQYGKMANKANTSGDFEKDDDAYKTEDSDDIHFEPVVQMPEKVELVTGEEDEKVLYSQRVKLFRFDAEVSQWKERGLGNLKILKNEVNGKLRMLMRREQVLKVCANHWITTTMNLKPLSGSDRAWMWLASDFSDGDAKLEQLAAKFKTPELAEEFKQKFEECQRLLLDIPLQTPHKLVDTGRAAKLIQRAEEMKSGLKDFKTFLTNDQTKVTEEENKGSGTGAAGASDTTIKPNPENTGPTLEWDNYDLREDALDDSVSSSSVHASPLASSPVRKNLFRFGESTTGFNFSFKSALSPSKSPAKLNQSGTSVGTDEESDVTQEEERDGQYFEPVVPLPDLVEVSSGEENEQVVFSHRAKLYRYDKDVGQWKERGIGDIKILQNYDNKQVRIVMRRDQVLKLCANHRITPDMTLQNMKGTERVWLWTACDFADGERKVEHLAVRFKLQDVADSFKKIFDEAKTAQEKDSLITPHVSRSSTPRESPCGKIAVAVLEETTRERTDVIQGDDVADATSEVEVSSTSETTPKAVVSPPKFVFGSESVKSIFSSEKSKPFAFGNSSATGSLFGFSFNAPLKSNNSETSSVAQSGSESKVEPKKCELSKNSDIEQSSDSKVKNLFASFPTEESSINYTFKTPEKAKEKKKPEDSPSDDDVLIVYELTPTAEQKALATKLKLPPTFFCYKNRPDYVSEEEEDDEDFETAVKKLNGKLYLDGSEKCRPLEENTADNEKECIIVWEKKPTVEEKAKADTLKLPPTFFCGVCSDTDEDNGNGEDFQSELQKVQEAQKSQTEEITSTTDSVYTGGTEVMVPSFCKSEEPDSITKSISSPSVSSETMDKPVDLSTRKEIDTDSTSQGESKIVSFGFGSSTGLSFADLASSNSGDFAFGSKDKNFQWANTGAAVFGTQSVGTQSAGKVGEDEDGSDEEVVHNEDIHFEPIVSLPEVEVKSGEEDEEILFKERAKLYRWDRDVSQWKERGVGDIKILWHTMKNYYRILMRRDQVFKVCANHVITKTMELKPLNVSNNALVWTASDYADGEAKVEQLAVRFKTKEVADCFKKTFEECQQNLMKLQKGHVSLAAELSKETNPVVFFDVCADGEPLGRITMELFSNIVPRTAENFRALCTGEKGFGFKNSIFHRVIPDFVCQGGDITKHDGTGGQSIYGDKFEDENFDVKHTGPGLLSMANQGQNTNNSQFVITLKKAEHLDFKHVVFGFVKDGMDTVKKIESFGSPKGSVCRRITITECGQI
UniProt Q15596: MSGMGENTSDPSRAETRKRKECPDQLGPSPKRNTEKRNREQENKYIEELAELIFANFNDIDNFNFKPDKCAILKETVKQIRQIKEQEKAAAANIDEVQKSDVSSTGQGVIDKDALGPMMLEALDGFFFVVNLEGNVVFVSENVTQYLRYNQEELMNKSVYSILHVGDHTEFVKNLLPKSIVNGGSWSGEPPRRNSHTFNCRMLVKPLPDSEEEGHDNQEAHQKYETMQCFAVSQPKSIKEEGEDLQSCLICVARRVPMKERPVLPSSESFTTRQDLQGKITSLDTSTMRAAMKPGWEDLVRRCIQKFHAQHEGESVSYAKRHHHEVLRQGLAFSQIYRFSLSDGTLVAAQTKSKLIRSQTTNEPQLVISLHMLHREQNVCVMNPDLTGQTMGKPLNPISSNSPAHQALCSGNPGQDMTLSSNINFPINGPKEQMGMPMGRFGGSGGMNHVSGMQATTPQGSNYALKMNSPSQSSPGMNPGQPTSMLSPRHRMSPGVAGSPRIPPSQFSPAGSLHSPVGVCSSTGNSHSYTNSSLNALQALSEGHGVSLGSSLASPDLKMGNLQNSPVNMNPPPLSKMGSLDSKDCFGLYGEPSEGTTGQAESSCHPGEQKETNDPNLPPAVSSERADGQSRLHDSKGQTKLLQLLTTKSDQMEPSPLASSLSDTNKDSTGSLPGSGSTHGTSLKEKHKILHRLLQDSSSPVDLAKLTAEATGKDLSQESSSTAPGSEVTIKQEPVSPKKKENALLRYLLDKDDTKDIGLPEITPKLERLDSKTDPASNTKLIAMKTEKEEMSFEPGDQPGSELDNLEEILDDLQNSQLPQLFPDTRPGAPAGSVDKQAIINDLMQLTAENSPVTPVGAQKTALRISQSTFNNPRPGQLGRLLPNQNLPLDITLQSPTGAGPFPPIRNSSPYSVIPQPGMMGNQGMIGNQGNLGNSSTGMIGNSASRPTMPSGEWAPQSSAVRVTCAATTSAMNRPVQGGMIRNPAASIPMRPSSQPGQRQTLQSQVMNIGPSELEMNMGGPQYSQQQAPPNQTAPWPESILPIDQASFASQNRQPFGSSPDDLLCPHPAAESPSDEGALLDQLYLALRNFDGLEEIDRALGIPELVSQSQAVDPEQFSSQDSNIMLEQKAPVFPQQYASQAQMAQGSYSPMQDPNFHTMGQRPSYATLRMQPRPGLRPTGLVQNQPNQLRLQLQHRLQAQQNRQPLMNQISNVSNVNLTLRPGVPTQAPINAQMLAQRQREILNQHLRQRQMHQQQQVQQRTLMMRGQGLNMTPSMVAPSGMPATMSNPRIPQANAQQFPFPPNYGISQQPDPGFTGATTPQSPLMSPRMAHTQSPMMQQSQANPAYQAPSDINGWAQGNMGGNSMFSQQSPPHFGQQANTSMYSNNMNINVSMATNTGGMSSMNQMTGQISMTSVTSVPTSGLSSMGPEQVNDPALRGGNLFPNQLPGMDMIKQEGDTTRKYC

What was measured:
Assay in all cases: proximity labelling; BioID, large-scale, direct identification of biotinylated peptides: same NTR-BirA* lines; biotinylated peptides eluted from streptavidin beads with 80% ACN, 20% TFA after the on-bead digest, MS
[1] = target: IMA5 (human) (UniProt P52294)
[2] = target: T1, importin 13 (IPO13) (human) (UniProt O94829)
T1 sequence: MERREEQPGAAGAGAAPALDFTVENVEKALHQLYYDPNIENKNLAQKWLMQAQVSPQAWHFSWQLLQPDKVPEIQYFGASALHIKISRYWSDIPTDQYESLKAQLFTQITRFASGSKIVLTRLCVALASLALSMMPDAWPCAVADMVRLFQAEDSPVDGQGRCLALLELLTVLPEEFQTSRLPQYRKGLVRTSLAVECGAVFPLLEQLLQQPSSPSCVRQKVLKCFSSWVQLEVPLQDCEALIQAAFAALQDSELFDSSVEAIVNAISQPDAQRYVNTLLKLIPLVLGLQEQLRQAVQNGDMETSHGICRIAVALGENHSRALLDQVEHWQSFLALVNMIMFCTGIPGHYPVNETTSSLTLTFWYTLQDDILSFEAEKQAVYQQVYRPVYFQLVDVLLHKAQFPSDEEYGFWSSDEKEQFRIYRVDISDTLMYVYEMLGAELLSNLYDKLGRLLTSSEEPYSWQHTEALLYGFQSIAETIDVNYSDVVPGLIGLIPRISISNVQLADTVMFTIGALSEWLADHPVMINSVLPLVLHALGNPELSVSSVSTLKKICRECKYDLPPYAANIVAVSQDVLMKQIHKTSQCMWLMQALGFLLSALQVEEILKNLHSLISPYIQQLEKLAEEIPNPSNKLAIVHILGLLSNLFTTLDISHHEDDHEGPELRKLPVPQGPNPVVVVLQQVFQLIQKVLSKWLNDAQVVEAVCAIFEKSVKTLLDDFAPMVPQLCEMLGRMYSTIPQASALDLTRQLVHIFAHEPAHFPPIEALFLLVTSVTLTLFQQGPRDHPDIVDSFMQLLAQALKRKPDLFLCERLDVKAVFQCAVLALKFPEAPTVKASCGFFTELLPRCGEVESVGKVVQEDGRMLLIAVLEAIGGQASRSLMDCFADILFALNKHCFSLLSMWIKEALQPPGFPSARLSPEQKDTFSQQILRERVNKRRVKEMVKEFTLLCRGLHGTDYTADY

[3] = target: IPO4 (human) (UniProt Q8TEX9)
[4] = target: T2, IPO11 (human) (UniProt Q9UI26)
T2 sequence: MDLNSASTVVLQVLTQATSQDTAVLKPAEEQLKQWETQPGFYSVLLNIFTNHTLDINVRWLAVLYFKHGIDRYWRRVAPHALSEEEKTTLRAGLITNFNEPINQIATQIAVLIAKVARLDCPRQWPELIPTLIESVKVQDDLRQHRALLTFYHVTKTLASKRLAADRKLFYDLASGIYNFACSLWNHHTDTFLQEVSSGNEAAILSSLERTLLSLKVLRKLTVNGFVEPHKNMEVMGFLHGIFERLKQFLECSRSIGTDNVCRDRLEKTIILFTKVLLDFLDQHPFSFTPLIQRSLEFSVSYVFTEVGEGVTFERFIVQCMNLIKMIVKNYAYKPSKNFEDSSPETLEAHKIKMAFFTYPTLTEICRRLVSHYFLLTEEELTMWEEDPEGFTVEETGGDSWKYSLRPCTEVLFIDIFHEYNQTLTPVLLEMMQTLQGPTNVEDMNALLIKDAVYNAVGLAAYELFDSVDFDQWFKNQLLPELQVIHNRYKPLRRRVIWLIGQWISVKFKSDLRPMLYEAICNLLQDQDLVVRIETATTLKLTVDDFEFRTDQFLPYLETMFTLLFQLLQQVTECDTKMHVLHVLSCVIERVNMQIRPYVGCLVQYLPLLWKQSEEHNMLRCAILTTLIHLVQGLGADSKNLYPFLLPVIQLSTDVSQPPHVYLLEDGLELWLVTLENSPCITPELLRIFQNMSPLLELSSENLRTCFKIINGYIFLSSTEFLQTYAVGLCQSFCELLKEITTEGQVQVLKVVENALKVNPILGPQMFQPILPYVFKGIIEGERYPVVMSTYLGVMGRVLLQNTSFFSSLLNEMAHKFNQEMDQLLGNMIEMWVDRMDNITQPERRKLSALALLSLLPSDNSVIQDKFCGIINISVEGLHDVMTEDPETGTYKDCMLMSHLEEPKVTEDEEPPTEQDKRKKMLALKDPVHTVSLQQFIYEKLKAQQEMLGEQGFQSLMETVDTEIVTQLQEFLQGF

[5] = target: T3, TNPO2 (human) (UniProt O14787)
T3 sequence: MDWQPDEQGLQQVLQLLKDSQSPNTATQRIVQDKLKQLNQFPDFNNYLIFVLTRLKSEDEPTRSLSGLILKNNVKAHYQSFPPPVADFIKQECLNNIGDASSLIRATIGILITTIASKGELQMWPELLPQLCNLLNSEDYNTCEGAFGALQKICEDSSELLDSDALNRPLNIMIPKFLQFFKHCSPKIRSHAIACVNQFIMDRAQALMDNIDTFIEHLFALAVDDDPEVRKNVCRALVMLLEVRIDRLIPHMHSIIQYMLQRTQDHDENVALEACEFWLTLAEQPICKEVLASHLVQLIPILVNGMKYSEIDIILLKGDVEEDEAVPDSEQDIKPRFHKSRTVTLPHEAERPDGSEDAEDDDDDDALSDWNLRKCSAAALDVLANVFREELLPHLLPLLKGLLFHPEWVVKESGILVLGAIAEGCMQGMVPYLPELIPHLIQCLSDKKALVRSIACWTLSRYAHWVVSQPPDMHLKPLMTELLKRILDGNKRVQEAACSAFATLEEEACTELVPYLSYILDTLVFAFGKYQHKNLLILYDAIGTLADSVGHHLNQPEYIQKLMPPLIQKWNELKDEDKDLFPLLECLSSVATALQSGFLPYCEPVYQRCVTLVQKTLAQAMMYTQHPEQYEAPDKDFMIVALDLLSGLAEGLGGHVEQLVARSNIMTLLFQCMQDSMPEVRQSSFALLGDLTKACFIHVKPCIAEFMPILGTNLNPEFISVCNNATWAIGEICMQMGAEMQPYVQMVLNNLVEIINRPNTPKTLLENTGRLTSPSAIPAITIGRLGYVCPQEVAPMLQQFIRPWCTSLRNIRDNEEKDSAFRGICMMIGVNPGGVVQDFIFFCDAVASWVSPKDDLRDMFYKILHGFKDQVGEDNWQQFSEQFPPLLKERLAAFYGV

[6] = target: IMA6 (human) (UniProt O15131)
[7] = target: IPO5 (human) (UniProt O00410)
[8] = target: TNPO1 (human) (UniProt Q92973)
[9] = target: XPO2 (human) (UniProt P55060)

Q: Which binding [1] does the source give for “NUP358/RANBP2 (from UniProt P49792 1-3224)” here?
A: binds weakly

Q: What about the binding [2] of the same molecule?
A: binds

Q: And the binding [3]?
A: binds

Q: What about the binding [4] of the same molecule?
A: binds

Q: And the binding [5]?
A: binds weakly

Q: And the binding [6]?
A: binds weakly

Q: And the binding [7]?
A: binds

Q: How did the binding [8] turn out when SRC2 (from UniProt Q15596 1-1464) was run?
A: binds

B1: BZW1 (protein, UniProt Q7L1Q6 1-419)
chain: MNNQKQQKPTLSGQRFKTRKRDEKERFDPTQFQDCIIQGLTETGTDLEAVAKFLDASGAKLDYRRYAETLFDILVAGGMLAPGGTLADDMMRTDVCVFAAQEDLETMQAFAQVFNKLIRRYKYLEKGFEDEVKKLLLFLKGFSESERNKLAMLTGVLLANGTLNASILNSLYNENLVKEGVSAAFAVKLFKSWINEKDINAVAASLRKVSMDNRLMELFPANKQSVEHFTKYFTEAGLKELSEYVRNQQTIGARKELQKELQEQMSRGDPFKDIILYVKEEMKKNNIPEPVVIGIVWSSVMSTVEWNKKEELVAEQAIKHLKQYSPLLAAFTTQGQSELTLLLKIQEYCYDNIHFMKAFQKIVVLFYKAEVLSEEPILKWYKDAHVAKGKSVFLEQMKKFVEWLKNAEEESESEAEEGD
Q: For B1, which binding [4] is on record?
A: binds

B2: BZW2 (protein, UniProt Q9Y6E2 1-419)
chain: MNKHQKPVLTGQRFKTRKRDEKEKFEPTVFRDTLVQGLNEAGDDLEAVAKFLDSTGSRLDYRRYADTLFDILVAGSMLAPGGTRIDDGDKTKMTNHCVFSANEDHETIRNYAQVFNKLIRRYKYLEKAFEDEMKKLLLFLKAFSETEQTKLAMLSGILLGNGTLPATILTSLFTDSLVKEGIAASFAVKLFKAWMAEKDANSVTSSLRKANLDKRLLELFPVNRQSVDHFAKYFTDAGLKELSDFLRVQQSLGTRKELQKELQERLSQECPIKEVVLYVKEEMKRNDLPETAVIGLLWTCIMNAVEWNKKEELVAEQALKHLKQYAPLLAVFSSQGQSELILLQKVQEYCYDNIHFMKAFQKIVVLFYKADVLSEEAILKWYKEAHVAKGKSVFLDQMKKFVEWLQNAEEESESEGEEN
Q: How did the binding [4] turn out when B2 was run?
A: binds

B3: SATB1 (protein, UniProt Q01826 1-763)
chain: MDHLNEATQGKEHSEMSNNVSDPKGPPAKIARLEQNGSPLGRGRLGSTGAKMQGVPLKHSGHLMKTNLRKGTMLPVFCVVEHYENAIEYDCKEEHAEFVLVRKDMLFNQLIEMALLSLGYSHSSAAQAKGLIQVGKWNPVPLSYVTDAPDATVADMLQDVYHVVTLKIQLHSCPKLEDLPPEQWSHTTVRNALKDLLKDMNQSSLAKECPLSQSMISSIVNSTYYANVSAAKCQEFGRWYKHFKKTKDMMVEMDSLSELSQQGANHVNFGQQPVPGNTAEQPPSPAQLSHGSQPSVRTPLPNLHPGLVSTPISPQLVNQQLVMAQLLNQQYAVNRLLAQQSLNQQYLNHPPPVSRSMNKPLEQQVSTNTEVSSEIYQWVRDELKRAGISQAVFARVAFNRTQGLLSEILRKEEDPKTASQSLLVNLRAMQNFLQLPEAERDRIYQDERERSLNAASAMGPAPLISTPPSRPPQVKTATIATERNGKPENNTMNINASIYDEIQQEMKRAKVSQALFAKVAATKSQGWLCELLRWKEDPSPENRTLWENLSMIRRFLSLPQPERDAIYEQESNAVHHHGDRPPHIIHVPAEQIQQQQQQQQQQQQQQQAPPPPQPQQQPQTGPRLPPRQPTVASPAESDEENRQKTRPRTKISVEALGILQSFIQDVGLYPDEEAIQTLSAQLDLPKYTIIKFFQNQRYYLKHHGKLKDNSGLEVDVAEYKEEELLKDLEESVQDKNTNTLFSVKLEEELSVEGNTDINTDLKD
Q: With B3 as the molecule, how does the binding [2] read?
A: binds

B4: Heterogeneous nuclear ribonucleoprotein M (protein, UniProt P52272 1-730)
chain: MAAGVEAAAEVAATEIKMEEESGAPGVPSGNGAPGPKGEGERPAQNEKRKEKNIKRGGNRFEPYANPTKRYRAFITNIPFDVKWQSLKDLVKEKVGEVTYVELLMDAEGKSRGCAVVEFKMEESMKKAAEVLNKHSLSGRPLKVKEDPDGEHARRAMQKVMATTGGMGMGPGGPGMITIPPSILNNPNIPNEIIHALQAGRLGSTVFVANLDYKVGWKKLKEVFSMAGVVVRADILEDKDGKSRGIGTVTFEQSIEAVQAISMFNGQLLFDRPMHVKMDERALPKGDFFPPERPQQLPHGLGGIGMGLGPGGQPIDANHLNKGIGMGNIGPAGMGMEGIGFGINKMGGMEGPFGGGMENMGRFGSGMNMGRINEILSNALKRGEIIAKQGGGGGGGSVPGIERMGPGIDRLGGAGMERMGAGLGHGMDRVGSEIERMGLVMDRMGSVERMGSGIERMGPLGLDHMASSIERMGQTMERIGSGVERMGAGMGFGLERMAAPIDRVGQTIERMGSGVERMGPAIERMGLSMERMVPAGMGAGLERMGPVMDRMATGLERMGANNLERMGLERMGANSLERMGLERMGANSLERMGPAMGPALGAGIERMGLAMGGGGGASFDRAIEMERGNFGGSFAGSFGGAGGHAPGVARKACQIFVRNLPFDFTWKMLKDKFNECGHVLYADIKMENGKSKGCGVVKFESPEVAERACRMMNGMKLSGREIDVRIDRNA
Q: Which binding [9] does the source give for B4 here?
A: binds
